No constants are given. Whether binding was seen depends on the method and setting. For part of these data: Binding seen in cells or lysates may run through a third protein. Some results given as binding are weak or reduced against the parent protein; the word gives no strength. Where a sequence is shown, tags or fusion partners need not be part of it. One block for each binder: values may come before it.
Key:
[1] = molecular target: T1, MBP-PUB11-U-box (Arabidopsis thaliana) (UniProt Q8GUG9); assay: pull-down; purified MBP-PUB11 full length or truncated variants (or MBP alone) with purified His-AtHPPD, 4°C; immunoblot with anti-His and anti-MBP; both purified
T1 sequence: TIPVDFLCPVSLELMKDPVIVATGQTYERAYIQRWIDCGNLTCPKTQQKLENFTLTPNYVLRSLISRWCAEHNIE

[2] = molecular target: T2, AtHPPD fused to the DNA-binding domain (pGBKT7 bait) (Arabidopsis thaliana) (UniProt P93836); assay: two-hybrid; yeast Y2HGold; AtHPPD in pGBKT7 (bait), PUB11 in pGADT7 (prey); growth and alpha-gal activity on SD/-Trp/-His/-Leu + X-alpha-gal (TDO/X)
T2 sequence: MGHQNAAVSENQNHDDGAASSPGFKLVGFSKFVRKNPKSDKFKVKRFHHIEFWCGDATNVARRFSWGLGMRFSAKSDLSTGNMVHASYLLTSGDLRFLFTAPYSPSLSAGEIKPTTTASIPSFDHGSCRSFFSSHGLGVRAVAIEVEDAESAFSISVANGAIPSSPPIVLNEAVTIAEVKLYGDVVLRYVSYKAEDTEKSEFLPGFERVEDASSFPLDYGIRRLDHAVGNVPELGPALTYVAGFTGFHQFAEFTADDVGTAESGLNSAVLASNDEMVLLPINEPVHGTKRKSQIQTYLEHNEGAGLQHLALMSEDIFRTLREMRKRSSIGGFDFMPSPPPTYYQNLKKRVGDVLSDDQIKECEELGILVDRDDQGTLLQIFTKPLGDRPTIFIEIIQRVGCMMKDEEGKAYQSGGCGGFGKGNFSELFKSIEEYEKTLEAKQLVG

[3] = molecular target: T3, AtHPPD-nYFP (Arabidopsis thaliana) (UniProt P93836); assay: split reporter; BiFC: PUB11-cYFP and AtHPPD-nYFP co-infiltrated in N. benthamiana leaf epidermal cells; confocal microscopy after 2-3 days; signal in the nucleus
T3 sequence: T2 sequence

binding [1]: binds
B1: His-AtHPPD (Arabidopsis thaliana 4-hydroxyphenylpyruvate dioxygenase) (enzyme, UniProt P93836 1-445)
chain: T2 sequence

binding [2]: binds
B2: full-length PUB11 fused to the activation domain (pGADT7 prey) (enzyme, UniProt Q8GUG9 1-612)
chain: MAGGIVSPASLLDLIADIVEIPLNTGMFKKDCADLTRRVCLLTHLLEEIRDSTPIDSAASSSSENDWWSDLVVGLQAAKRLLSTARFQARDSSDGAAKRISFQFQCVTWKLEKALSNLPYDLYDISDEVGEQVELARSQLRRAMQRYGSLNSNKFSSALSEPMERDGFSNVIKIKAEEKLESVSETLHFGEEEEKQSSPPLRRSSSISLAYYLSKDADTDRLDKMVNKNTDESKKSDKLTIPVDFLCPVSLELMKDPVIVATGQTYERAYIQRWIDCGNLTCPKTQQKLENFTLTPNYVLRSLISRWCAEHNIEQPAGYINGRTKNSGDMSVIRALVQRLSSRSTEDRRNAVSEIRSLSKRSTDNRILIAEAGAIPVLVNLLTSEDVATQENAITCVLNLSIYENNKELIMFAGAVTSIVQVLRAGTMEARENAAATLFSLSLADENKIIIGGSGAIPALVDLLENGTPRGKKDAATALFNLCIYHGNKGRAVRAGIVTALVKMLSDSTRHRMVDEALTILSVLANNQDAKSAIVKANTLPALIGILQTDQTRNRENAAAILLSLCKRDTEKLITIGRLGAVVPLMDLSKNGTERGKRKAISLLELLRKACQ

binding [3]: binds
B3: PUB11-cYFP (enzyme, UniProt Q8GUG9 1-612)
chain: B2 chain

Reference: article PMC12785156
